Measured values reported in publication PMC5467336.
No constants are given. Whether binding was seen depends on the method and setting. Binding seen in cells or lysates may run through a third protein. Some results given as binding are weak or reduced against the parent protein; the word gives no strength.

Protein sequences, listed by entry. Tags and fused reporters are not part of them. Residues count along the entry.
UniProt P05067, residues 18-770: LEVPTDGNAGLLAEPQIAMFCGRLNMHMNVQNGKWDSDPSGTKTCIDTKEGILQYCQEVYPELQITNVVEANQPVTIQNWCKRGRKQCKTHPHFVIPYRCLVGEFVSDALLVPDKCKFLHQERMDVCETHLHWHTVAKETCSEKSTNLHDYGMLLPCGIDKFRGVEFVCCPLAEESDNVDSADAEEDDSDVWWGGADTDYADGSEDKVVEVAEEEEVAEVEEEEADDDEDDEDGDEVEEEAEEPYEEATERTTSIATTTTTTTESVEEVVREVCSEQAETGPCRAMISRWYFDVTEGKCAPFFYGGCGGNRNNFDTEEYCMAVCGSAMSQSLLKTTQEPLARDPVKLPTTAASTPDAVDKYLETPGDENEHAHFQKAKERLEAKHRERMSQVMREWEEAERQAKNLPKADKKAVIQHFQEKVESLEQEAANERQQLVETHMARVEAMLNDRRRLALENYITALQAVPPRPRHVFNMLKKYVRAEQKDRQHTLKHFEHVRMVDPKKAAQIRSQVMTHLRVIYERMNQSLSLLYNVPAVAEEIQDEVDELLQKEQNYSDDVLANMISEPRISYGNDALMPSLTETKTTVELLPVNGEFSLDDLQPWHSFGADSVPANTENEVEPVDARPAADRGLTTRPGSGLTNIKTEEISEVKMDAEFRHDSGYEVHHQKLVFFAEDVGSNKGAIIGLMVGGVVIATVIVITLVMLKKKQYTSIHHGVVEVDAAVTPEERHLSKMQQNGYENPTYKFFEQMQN
UniProt Q92673, residues 82-2214: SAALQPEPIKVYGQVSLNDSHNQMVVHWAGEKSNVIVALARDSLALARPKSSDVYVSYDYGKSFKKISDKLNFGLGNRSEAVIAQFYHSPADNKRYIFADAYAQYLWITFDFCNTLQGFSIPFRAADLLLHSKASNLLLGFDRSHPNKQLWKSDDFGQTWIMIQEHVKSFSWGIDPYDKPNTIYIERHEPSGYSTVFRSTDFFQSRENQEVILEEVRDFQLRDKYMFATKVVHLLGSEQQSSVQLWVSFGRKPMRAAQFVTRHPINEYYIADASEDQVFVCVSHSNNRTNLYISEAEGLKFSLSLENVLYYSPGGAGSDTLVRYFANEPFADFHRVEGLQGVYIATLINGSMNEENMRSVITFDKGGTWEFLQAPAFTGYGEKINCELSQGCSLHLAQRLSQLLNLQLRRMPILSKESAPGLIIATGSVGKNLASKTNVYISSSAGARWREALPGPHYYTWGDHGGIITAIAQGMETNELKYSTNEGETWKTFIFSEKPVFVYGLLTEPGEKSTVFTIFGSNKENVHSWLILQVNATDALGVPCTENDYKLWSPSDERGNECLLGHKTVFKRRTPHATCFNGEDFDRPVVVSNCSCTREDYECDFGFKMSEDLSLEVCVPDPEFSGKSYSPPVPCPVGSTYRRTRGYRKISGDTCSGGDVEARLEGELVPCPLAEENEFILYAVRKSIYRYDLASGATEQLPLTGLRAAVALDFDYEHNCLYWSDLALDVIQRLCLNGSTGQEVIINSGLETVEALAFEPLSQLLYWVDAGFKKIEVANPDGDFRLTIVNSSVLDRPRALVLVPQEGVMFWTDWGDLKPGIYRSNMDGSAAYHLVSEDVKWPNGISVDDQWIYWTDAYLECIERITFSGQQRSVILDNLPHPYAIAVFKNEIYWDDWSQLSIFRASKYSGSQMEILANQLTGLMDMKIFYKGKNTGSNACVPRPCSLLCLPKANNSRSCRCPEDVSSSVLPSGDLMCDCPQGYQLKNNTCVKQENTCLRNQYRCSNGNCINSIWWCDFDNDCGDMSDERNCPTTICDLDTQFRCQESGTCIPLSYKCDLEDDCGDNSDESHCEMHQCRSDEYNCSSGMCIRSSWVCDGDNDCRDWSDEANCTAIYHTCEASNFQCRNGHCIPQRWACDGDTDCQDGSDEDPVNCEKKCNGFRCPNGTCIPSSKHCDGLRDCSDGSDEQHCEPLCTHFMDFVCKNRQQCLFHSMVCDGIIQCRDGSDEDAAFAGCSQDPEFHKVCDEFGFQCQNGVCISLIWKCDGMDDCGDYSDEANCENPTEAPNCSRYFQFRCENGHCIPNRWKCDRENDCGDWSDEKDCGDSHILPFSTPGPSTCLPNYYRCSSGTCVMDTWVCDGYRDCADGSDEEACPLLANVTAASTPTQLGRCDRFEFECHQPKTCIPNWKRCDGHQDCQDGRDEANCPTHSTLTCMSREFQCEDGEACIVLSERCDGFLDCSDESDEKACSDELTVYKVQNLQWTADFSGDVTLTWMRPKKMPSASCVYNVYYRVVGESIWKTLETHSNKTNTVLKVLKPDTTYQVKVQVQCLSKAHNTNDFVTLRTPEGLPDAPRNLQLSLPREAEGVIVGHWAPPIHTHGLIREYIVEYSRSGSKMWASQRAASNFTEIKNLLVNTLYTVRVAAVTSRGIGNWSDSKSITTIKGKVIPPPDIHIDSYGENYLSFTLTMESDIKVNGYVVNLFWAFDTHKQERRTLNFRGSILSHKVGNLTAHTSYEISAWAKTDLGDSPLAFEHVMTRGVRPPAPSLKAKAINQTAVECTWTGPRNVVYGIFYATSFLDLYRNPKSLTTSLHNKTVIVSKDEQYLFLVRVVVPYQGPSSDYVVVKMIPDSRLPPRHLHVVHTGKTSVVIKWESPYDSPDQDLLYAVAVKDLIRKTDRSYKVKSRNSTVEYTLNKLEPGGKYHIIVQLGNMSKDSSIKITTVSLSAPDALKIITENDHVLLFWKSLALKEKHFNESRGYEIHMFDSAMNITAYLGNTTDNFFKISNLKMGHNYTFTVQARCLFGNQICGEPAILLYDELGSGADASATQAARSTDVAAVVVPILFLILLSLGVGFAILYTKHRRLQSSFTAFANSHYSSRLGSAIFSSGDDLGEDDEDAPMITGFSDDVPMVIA

Experiments:
[1] = target: amyloid precursor protein (APP) (human (endogenous in neurons from iPSC-derived NSCs)) (UniProt P05067); assay: co-IP; lysates of control and E4/E4 neurons after five weeks in culture, untreated or with vehicle (DMSO 0.01%), beta-secretase inhibitor or gamma-secretase inhibitor (50 nM); precipitated with anti-APP antibody, blot with anti-SORL1
[2] = target: sortilin-related receptor (SORL1) (human (endogenous in neurons from iPSC-derived NSCs)) (UniProt Q92673); assay: co-IP; lysate of control neurons (n.1) after five weeks in culture; precipitated with mouse anti-SORL1 (ab63336) on Dynabeads Protein G, eluted with 0.1 M citrate buffer; blot with rabbit anti-APP (Y188)

| Substance | binding [1] | binding [2] |
| --- | --- | --- |
| sortilin-related receptor (SORL1) (from UniProt Q92673 82-2214) | binds | – |
| amyloid precursor protein (APP) (from UniProt P05067 18-770) | – | binds |
